# For part of these data: HELM strings list residues between dots; [ac] is acetyl, [am] amide, other brackets name non-standard units.
# What was measured:
# [1] = general procedure: Fmoc solid-phase peptide synthesis; H-Cys(4-methoxytrityl)-2-chlorotrityl-Resin (loading 0.56 mmol/g); Fmoc-AA-Wang resin in general scheme; PyBOP, DIPEA; conditions: conjugation step, over 2 steps from everolimus
# [2] = general procedure: Fmoc solid-phase peptide synthesis; H-Cys(4-methoxytrityl)-2-chlorotrityl-Resin; PyBOP, DIPEA; conditions: whole synthesis, scale 0.1 mmol
Substance,conjugation yield [1] [% yield],isolated mass [2],isolated yield [2] [%]
"PEPTIDE1{[Pte].[gGlu].[SacGlu].E.[SacGlu].E.[SacGlu].C}|CHEM1{[SEtOCO-Everolimus]}$PEPTIDE1,CHEM1,8:R3-1:R1$$$V2.0",50,–,–
Tetra-Saccharoglutamate-Bis-aGlu-Folate Spacer EC0491,–,˜100 mg,51

# Reference: US20130203680A1 (ENDOCYTE, INC., priority 2010, published 2013)
